The full ranking holds about 33,000 sequences; the median of “E-score (-0.5 to 0.5)” is about -0.0059, and the highest 2% start at about 0.26. This is one part of the list.
molecular target: T1, Cin5 (UniProt P40917); assay: PBM E-score (8-mer binding enrichment) (E-score (-0.5 to 0.5)); higher = stronger / more preferred TF binding; conditions: protein concentration: 100 nM; construct: GST-full length
T1 sequence: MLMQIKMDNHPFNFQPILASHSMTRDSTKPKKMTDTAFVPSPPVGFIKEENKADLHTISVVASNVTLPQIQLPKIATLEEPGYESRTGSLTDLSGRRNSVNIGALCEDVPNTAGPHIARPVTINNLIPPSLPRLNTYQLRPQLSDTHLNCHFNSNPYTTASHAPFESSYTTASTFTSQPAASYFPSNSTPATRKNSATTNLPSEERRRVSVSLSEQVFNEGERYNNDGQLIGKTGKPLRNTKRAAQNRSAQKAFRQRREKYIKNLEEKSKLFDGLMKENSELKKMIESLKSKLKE
Method in brief: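 Masliner-normalised scans of fluorescent anti-GST signal were the basis for scoring. That signal came from GST-tagged yeast transcription factors applied at about 100-200 nM to double-stranded universal all-10-mer Agilent arrays on fresh or once-stripped slides. Each ungapped eight-base word, pooled with its reverse complement, received an E-score from the Universal PBM Analysis Suite.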

Row | Sequence | PBM E-score
1 | CACCTTCC | 0.0119
2 | ATTCCACA | 0.266
3 | AAAGTCTA | -0.0672
4 | ACTGACGC | -0.208
5 | GAGAACAA | 0.269
6 | TGAATCAA | 0.149
7 | ATCATCTC | 0.165
8 | ACGTAGAA | 0.105
9 | GTTCAACA | 0.0706
10 | AAACACCA | -0.00871
11 | ACGGCCCA | -0.17
12 | ATTGGGCA | -0.0554
13 | CAGTCTAG | -0.296
14 | AGTTTCCG | 0.147
15 | CTAGGTCA | -0.107
16 | ATCGCTGG | -0.194
17 | CGCCCGGA | 0.0086
18 | GGTTCCAC | -0.0569
19 | CACTGCAA | 0.0112
20 | ACGTCGCT | -0.0654
21 | CCATAAGG | -0.181
22 | TAAGGTCA | 0.0703
23 | AATCGGCG | -0.0653
24 | ACCCCTAA | 0.0174
25 | ACAAAGGT | 0.0396

Row | Sequence | PBM E-score
26 | ACAAACGT | -0.0354
27 | ACACACAA | 0.132
28 | CGAGCGCC | -0.287
29 | CGAGGACC | -0.154
30 | AGCTGAGG | -0.181
31 | CCGGTTCG | -0.166
32 | GATGCAGA | 0.118
33 | CTAACGAG | 0.0251
34 | CCTGAACG | -0.107
35 | CCAACCGA | 0.177
36 | AGGCCCCA | -0.138
37 | AGCTCACA | -0.0223
38 | CACTAGAC | -0.062
39 | ACTGCTAA | -0.0789
40 | ATAGTGCA | 0.029
41 | GGATCCTA | -0.0459
42 | AGCTTTAT | -0.0954
43 | ATTTCCAA | -0.0562
44 | GACATTGA | 0.126
45 | AAATAGCA | 0.0744
46 | CTCGCGGA | 0.024
47 | CCATCCAG | -0.135
48 | AGCCATGC | -0.0545
49 | AGATGGGG | -0.0629
50 | AACTTAGA | 0.105

Row | Sequence | PBM E-score
51 | ACGAGCGT | -0.197
52 | CGTCTGGA | -0.345
53 | AGGGGAAT | 0.0631
54 | GGAAGCAC | -0.124
55 | CATATCCC | 0.122
56 | CGACTCAC | -0.212
57 | CTTAGAGA | -0.0314
58 | CTAGAGAA | 0.0802
59 | CGCAAAAG | -0.103
60 | TATTGCAA | 0.212
61 | CGTACCTA | -0.0475
62 | CAAAAGAC | 0.0282
63 | AGAATCGG | -0.0541
64 | CAAGGCCC | -0.212
65 | ACTATATG | 0.117
66 | TTAGTGAA | 0.0467
67 | GAGGATGC | -0.0952
68 | GATGCCCA | 0.0818
69 | TACCAGGA | 0.128
70 | AACCTCAG | -0.0196
71 | AAGCAAGG | -0.0167
72 | ATGTAGCA | 0.0135
73 | TAAAGTCA | 0.157
74 | CACCCTAC | 0.0139
75 | CTGGCGCC | 0.052

Reformatted tab-delimited: part of the list above
Row	Sequence	PBM E-score
68	GATGCCCA	0.0818
69	TACCAGGA	0.128
70	AACCTCAG	-0.0196
71	AAGCAAGG	-0.0167
72	ATGTAGCA	0.0135

Next part.

Row | Sequence | PBM E-score
76 | CGTGATCC | 0.0158
77 | CTGAGCTC | 0.0124
78 | CCCTAAAG | -0.27
79 | CGGGGAGA | -0.131
80 | CTCGCTCA | 0.056
81 | GCATATAA | 0.135
82 | CTGCCTTA | -0.109
83 | ATCGGATA | 0.213
84 | CACATTGC | 0.13
85 | CTTCATTC | 0.0795
86 | ATATCTGG | 0.0244
87 | ACTACGAC | -0.0576
88 | CTCCGCAG | -0.0786
89 | CGTAGAAG | 0.00718
90 | GGTTTGAC | -0.177
91 | ATACGTGG | -0.0468
92 | TAAATCCA | 0.128
93 | GTCCCCTA | -0.133
94 | CATACGAA | 0.129
95 | CTTCCCGC | 0.107
96 | AGTGAACT | 0.035
97 | AATAAATC | 0.0611
98 | CCTAATCC | 0.029
99 | AAAAGGCG | -0.125
100 | GATAAGGC | -0.138

Row | Sequence | PBM E-score
101 | GAGTTGAA | 0.0453
102 | CGAAGGCC | -0.261
103 | AGAGCGGG | -0.116
104 | ACCCATCA | 0.0871
105 | AGGGCCCA | -0.179
106 | AACTGGCT | -0.159
107 | ATCGGTGG | -0.16
108 | ATCCGATG | 0.13
109 | CAGAGCAC | -0.123
110 | GGGGGCAC | -0.382
111 | GATCTGGC | -0.0261
112 | CGCACGCG | -0.103
113 | GAATGGGC | 0.0258
114 | ACTAAAGG | -0.13
115 | ATTCACAA | 0.241
116 | CCCCTTCC | -0.231
117 | AAGGAGAC | -0.22
118 | CGCGTTTA | 0.0808
119 | AGGTAGCA | -0.15
120 | CGAAGCCG | -0.0662
121 | ACATGCTA | -0.0909
122 | GGTAATAA | 0.249
123 | AGCAATAT | 0.157
124 | AGAGTCAA | -0.118
125 | CTAATTAC | 0.24

Row | Sequence | PBM E-score
126 | ATGTACGG | 0.0858
127 | CTTGTGGA | 0.0287
128 | CATGGGAA | 0.0348
129 | GATGGTAA | -0.0229
130 | CGACGTCG | -0.0048
131 | GACAGAGA | -0.033
132 | GATTATCA | 0.201
133 | AGTTGGCG | -0.0813
134 | CGAAGTCG | 0.147
135 | ACCATAGG | -0.251
136 | GAGTTAGA | -0.13
137 | AATAAAAA | 0.21
138 | ACCCATTA | 0.0824
139 | GCGTATCC | -0.217
140 | GTGCTTGA | -0.0478
141 | CCCACGCG | -0.146
142 | CGAACACG | -0.0466
143 | CAAGTGTG | 0.0228
144 | AAGGGGCT | -0.0619
145 | CCGATGCG | -0.0501
146 | GGCTTGGA | -0.18
147 | CGGTACGA | -0.14
148 | AGTCGTAT | -0.0467
149 | CTTAAATA | 0.0164
150 | CGACCCTA | -0.148

Pulled one by one from above (two):
Row | Sequence | PBM E-score
140 | GTGCTTGA | -0.0478
129 | GATGGTAA | -0.0229

The listing continues.

Row | Sequence | PBM E-score
151 | GGTGACCA | -0.182
152 | ACTCCCCG | 0.121
153 | AATTGCCG | -0.0809
154 | GGCGGACA | -0.112
155 | GCCAGTTA | 0.0154
156 | CTCTAGGC | -0.126
157 | CCGGACGG | -0.202
158 | GGAGACCA | -0.162
159 | CCCTGCTC | -0.23
160 | CTGCGTGC | -0.0801
161 | CTTTACCC | -0.185
162 | AGGGTGAA | -0.137
163 | CATATTCA | 0.129
164 | CGGCATGA | 0.123
165 | CGCCCTTA | -0.0701
166 | CACTGATC | 0.0106
167 | CCTGAAAC | -0.0118
168 | AGGCGCAC | -0.0161
169 | CGAGTACC | 0.0635
170 | CACTTCAA | -0.0898
171 | AATGATAC | 0.251
172 | GACGTCTA | -0.0507

Rewritten as labelled records: part of the list above
ACTCCCCG
  PBM E-score: 0.121
AATTGCCG
  PBM E-score: -0.0809

From the supplement of paper PMC3334620
